Laboratory results: PubChem BioAssay AID1259300 (Sanger Institute, 2017)
This is a random part of 794 reagents tested. 18 of all reagents (2.3%) were called active. 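Calls rest on knock-down alone, not drug synergy; depositor treated synergy scores above 0.15 as synergistic; drug doses alone had little viability effect.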 No viability above 1 is reported: the scale is capped. Not stated in the record: the amount of reagent, the time to read-out.

Aim: 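siRNA screen of kinases and common colorectal cancer mutant genes, alone or with drugs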 (primary screen)
Cell system: HCT15 colorectal cancer cells
Knock-down reagent: siRNA pool against human genes
Treatment: anchor drug or DMSO vehicle added 24 h after seeding: BYL719 1 µM, cetuximab 5 µg/ml, trametinib 10 nM; drug doses chosen to barely affect viability alone
Detection: 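Cell viability after knock-down, as fraction of non-targeting pool wells averaged over replicates, plus robust z-score for knock-down alone; synergy score per drug (BYL719 1 µM, cetuximab 5 µg/ml, trametinib 10 nM)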
Direction: viability z-score, siRNA alone: higher = more viable cells after knock-down; viability vs non-targeting, siRNA alone: higher = more viable cells; synergy score with BYL719 and synergy score with cetuximab and synergy score with trametinib: higher = stronger synergy of knock-down with drug
Rule for the call: 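Called active (essential) if viability z-score with knock-down alone falls below -3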
Meaning of the calls: active = essential: knock-down alone lowers viability (z below -3); inactive = no strong viability loss with knock-down alone

no.	gene knocked down	viability z-score, siRNA alone	viability vs non-targeting, siRNA alone	synergy score with BYL719	synergy score with cetuximab	synergy score with trametinib	activity call
1	EPHA3	0.625	1	0.164	0	0.0768	inactive
2	EPHB6	0.625	1	0.0116	0.038	-0.0594	inactive
3	PFKL	-0.597	0.911	0.0979	-0.0344	-0.0895	inactive
4	MYO3A	0.625	1	0.218	0.0418	0.185	inactive
5	PRKD1	0.625	1	0.229	0.14	0.0595	inactive
6	CASK	0.512	0.992	0.242	0.0798	-0.0364	inactive
7	HASPIN	0.528	0.993	0.143	0.0808	0.0238	inactive
8	MAPKAPK3	-2.22	0.793	0.189	-0.0682	-0.00291	inactive
9	MAP2K1	-0.226	0.938	-0.0375	0.0383	-0.148	inactive
10	NEK6	0.625	1	0.0323	0	-0.0984	inactive
11	HUNK	-1.18	0.868	0.0638	-0.132	-0.0214	inactive
12	PFKFB1	-0.724	0.902	-0.00918	-0.0406	-0.187	inactive
13	CAMKV	0.625	1	0.143	0.108	-0.0984	inactive
14	SIK1	0.625	1	0.139	0.0493	0.0322	inactive
15	TPD52L3	0.625	1	0.0637	0.149	0.00352	inactive
16	RIPK3	0.625	1	0.0574	0	0.0431	inactive
17	CAMK1G	-1.81	0.823	-0.15	-0.118	-0.142	inactive
18	MVK	0.625	1	0.172	0.131	-0.0437	inactive
19	NUCKS1	0.625	1	0.0246	0.00237	-0.0739	inactive
20	NME6	-1.18	0.869	0.129	0.128	-0.111	inactive
21	DGKG	0.625	1	0.148	0.0964	0.0134	inactive
22	GNE	0.625	1	0.205	0.122	-0.0102	inactive
23	NLK	-1.28	0.862	0.109	-0.0337	-0.131	inactive
24	STK26	0.625	1	0.0145	0.0873	-0.0897	inactive
25	MAP3K8	-0.223	0.938	0.258	0.112	0.0507	inactive
26	GNAS	0.202	0.969	0.242	0.139	-0.104	inactive
27	PTGS1	-0.616	0.91	0.129	0.0925	0.00858	inactive
28	WT1	0.625	1	0.0342	0	-0.0984	inactive
29	CDKL2	0.299	0.976	0.235	0.0814	-0.0993	inactive
30	TEX14	0.625	1	0.164	0.0824	0.108	inactive
31	IRAK3	-1.67	0.833	0.332	-0.0596	0.00725	inactive
32	NR2F2	-0.959	0.885	0.107	-0.0119	-0.0694	inactive

Reformatted: entries from further up.
gene knocked down	viability z-score, siRNA alone	viability vs non-targeting, siRNA alone	synergy score with BYL719	synergy score with cetuximab	synergy score with trametinib	activity call
MAP2K1	-0.226	0.938	-0.0375	0.0383	-0.148	inactive
NEK6	0.625	1	0.0323	0	-0.0984	inactive
HUNK	-1.18	0.868	0.0638	-0.132	-0.0214	inactive
PFKFB1	-0.724	0.902	-0.00918	-0.0406	-0.187	inactive
CAMKV	0.625	1	0.143	0.108	-0.0984	inactive
SIK1	0.625	1	0.139	0.0493	0.0322	inactive

Next results:
no.	gene knocked down	viability z-score, siRNA alone	viability vs non-targeting, siRNA alone	synergy score with BYL719	synergy score with cetuximab	synergy score with trametinib	activity call
33	PNKP	0.625	1	0.208	0.0628	-0.0984	inactive
34	CILK1	0.625	1	0.111	0.0262	0.113	inactive
35	WEE1	-2.33	0.785	0.0953	0.0837	0.0151	inactive
36	CDK3	0.0808	0.96	0.26	0.0689	-0.109	inactive
37	ATP23	0.625	1	0.125	0.0238	-0.0984	inactive
38	CDC7	0.625	1	0.217	0	-0.0747	inactive
39	GRK3	0.625	1	0.000345	0.0298	-0.0984	inactive
40	PIKFYVE	0.0143	0.956	0.116	-0.0444	-0.138	inactive
41	TBX3	0.625	1	0.149	0	-0.00311	inactive
42	EPHB1	-0.0539	0.951	0.177	-0.0494	-0.0469	inactive
43	HIPK3	0.305	0.977	0.0901	0.173	0.0223	inactive
44	CHUK	0.625	1	-0.0361	0.118	-0.0635	inactive
45	ACVR2A	0.625	1	0.123	0.0124	-0.0984	inactive
46	MAP3K13	0.625	1	0.157	0.264	-0.0984	inactive
47	WNK2	0.625	1	0.13	0	-0.0984	inactive
48	ASPM	0.625	1	0.147	0.0928	0.277	inactive
49	NF1	0.625	1	0.0807	0	-0.0984	inactive
50	MELK	0.625	1	0.0428	0.0489	0.00139	inactive
51	MAPK6	0.625	1	0.319	0.132	0.092	inactive
52	MERTK	0.625	1	-0.0516	0.00493	-0.0343	inactive
53	LATS2	0.625	1	0.128	0.000566	0.0321	inactive
54	PI4K2A	0.625	1	0.187	0.054	-0.0984	inactive
55	CDC42BPA	0.625	1	0.156	0.1	0.0114	inactive
56	PIK3CD	0.625	1	-0.0371	0	0.0195	inactive
57	NME4	0.625	1	0.155	0.0997	0.0155	inactive
58	LCK	-0.144	0.944	0.258	-0.0319	-0.0427	inactive
59	PRAG1	0.625	1	0.252	0.00645	-0.0379	inactive
60	FRK	0.625	1	0.222	0.096	-0.0984	inactive
61	CDK16	-0.195	0.94	0.159	-0.0349	0.034	inactive
62	NME5	0.625	1	0.131	0	0.0221	inactive
63	COQ8B	0.0594	0.959	-0.0855	0.0262	-0.135	inactive
